Laboratory results taken from publication PMC4530945.
These are yes or no findings as the source states them, for the method shown.

By UniProt entry, the sequences of proteins in these tests, tags left out. Residues count along the entry.
UniProt P36544, residues 23-502: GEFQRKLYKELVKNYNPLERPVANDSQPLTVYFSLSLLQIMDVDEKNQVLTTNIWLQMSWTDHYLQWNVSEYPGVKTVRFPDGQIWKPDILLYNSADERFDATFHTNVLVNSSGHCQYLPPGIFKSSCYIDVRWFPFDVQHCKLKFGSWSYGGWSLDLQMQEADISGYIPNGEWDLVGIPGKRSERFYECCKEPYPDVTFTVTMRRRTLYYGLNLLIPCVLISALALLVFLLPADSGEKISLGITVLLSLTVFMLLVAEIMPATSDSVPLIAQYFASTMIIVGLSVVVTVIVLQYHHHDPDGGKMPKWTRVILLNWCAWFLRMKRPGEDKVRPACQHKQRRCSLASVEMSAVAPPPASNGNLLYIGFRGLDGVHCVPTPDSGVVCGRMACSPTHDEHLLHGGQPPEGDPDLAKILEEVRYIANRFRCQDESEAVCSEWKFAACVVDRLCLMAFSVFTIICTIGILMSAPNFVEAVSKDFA
UniProt P60615, residues 22-95: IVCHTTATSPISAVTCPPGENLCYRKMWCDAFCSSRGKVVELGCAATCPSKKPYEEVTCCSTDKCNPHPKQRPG

Biological target: α7-nicotinic acetylcholine receptor (human) (UniProt P36544)
Assay: radioligand binding; only the binder purified

^125I-α-bgtx (from UniProt P60615 22-95) (ligand)
binding: no binding (condition: with 5 μM MLA)
